The exact form of at least one protein or probe is not confirmed. Results from cells or extracts need not show a direct contact. For some of these results: At least one verdict rests on a figure or table, not on a statement of the authors. For some of these results: Tags and fusion partners may be left off the protein sequences shown.
How the values were obtained:
Assay in all cases: EMSA supershift
[1] = molecular target: NFAT2 (NFATc1) (Mus musculus (11A2 T cell line)) (UniProt O88942); conditions: PMA+ionomycin 4 h, similar in control and TNF-treated cell extract; 5 ug nuclear extract, 32P probe, 15 min at room temperature, 6% native PAGE; antibody 1 ug preincubated 10 min; protein in an extract; label: 32P end label
[2] = molecular target: Fra-2 (Mus musculus (11A2 T cell line)) (UniProt P47930); conditions: PMA+ionomycin 4 h, little or no TNF effect; 5 ug nuclear extract, 32P probe, 15 min at room temperature, 6% native PAGE; antibody 1 ug preincubated 10 min; protein in an extract; label: 32P end label
[3] = molecular target: c-Jun (Mus musculus (11A2 T cell line)) (UniProt P05627); conditions: PMA+ionomycin 4 h, little or no TNF effect, data not shown; 5 ug nuclear extract, 32P probe, 15 min at room temperature, 6% native PAGE; antibody 1 ug preincubated 10 min; protein in an extract; label: 32P end label
[4] = molecular target: Fos B (Mus musculus (11A2 T cell line)) (UniProt P13346); conditions: PMA+ionomycin 4 h, little or no TNF effect; 5 ug nuclear extract, 32P probe, 15 min at room temperature, 6% native PAGE; antibody 1 ug preincubated 10 min; protein in an extract; label: 32P end label
[5] = molecular target: Jun B (Mus musculus (11A2 T cell line)) (UniProt P09450); conditions: PMA+ionomycin 4 h, modestly reduced in TNF-treated cell extract; 5 ug nuclear extract, 32P probe, 15 min at room temperature, 6% native PAGE; antibody 1 ug preincubated 10 min; protein in an extract; label: 32P end label
[6] = molecular target: Jun D (Mus musculus (11A2 T cell line)) (UniProt P15066); conditions: PMA+ionomycin 4 h, little or no TNF effect; 5 ug nuclear extract, 32P probe, 15 min at room temperature, 6% native PAGE; antibody 1 ug preincubated 10 min; protein in an extract; label: 32P end label
[7] = molecular target: c-Fos (Mus musculus (11A2 T cell line)) (UniProt P01101); conditions: PMA+ionomycin 4 h, modestly reduced in TNF-treated cell extract; 5 ug nuclear extract, 32P probe, 15 min at room temperature, 6% native PAGE; antibody 1 ug preincubated 10 min; protein in an extract; label: 32P end label
[8] = molecular target: T1, p50 (NF-kB1) (Mus musculus (11A2 T cell line)) (UniProt P25799); conditions: PMA+ionomycin 4 h, complexes I and II, less in TNF-treated cell extract; 5 ug nuclear extract, 32P probe, 15 min at room temperature, 6% native PAGE; antibody 1 ug preincubated 10 min; protein in an extract; label: 32P end label
T1 sequence (looked up, limits assumed): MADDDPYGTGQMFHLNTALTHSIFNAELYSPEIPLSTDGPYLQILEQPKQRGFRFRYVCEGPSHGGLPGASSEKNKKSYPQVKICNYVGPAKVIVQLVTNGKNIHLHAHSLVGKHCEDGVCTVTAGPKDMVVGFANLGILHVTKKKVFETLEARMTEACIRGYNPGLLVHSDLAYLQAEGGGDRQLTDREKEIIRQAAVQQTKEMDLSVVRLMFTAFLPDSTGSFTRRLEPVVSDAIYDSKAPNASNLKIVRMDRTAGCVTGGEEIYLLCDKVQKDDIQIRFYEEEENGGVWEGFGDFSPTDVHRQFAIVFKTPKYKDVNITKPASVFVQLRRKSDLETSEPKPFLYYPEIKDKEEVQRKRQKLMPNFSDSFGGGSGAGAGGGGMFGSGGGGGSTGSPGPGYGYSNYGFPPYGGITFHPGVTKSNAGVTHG

Chains of the proteins cited; added tags and fusions are not shown. Lines headed by an entry give the natural chain unless they say otherwise; changes in a name come on top. Residues count along the entry.
UniProt O88942: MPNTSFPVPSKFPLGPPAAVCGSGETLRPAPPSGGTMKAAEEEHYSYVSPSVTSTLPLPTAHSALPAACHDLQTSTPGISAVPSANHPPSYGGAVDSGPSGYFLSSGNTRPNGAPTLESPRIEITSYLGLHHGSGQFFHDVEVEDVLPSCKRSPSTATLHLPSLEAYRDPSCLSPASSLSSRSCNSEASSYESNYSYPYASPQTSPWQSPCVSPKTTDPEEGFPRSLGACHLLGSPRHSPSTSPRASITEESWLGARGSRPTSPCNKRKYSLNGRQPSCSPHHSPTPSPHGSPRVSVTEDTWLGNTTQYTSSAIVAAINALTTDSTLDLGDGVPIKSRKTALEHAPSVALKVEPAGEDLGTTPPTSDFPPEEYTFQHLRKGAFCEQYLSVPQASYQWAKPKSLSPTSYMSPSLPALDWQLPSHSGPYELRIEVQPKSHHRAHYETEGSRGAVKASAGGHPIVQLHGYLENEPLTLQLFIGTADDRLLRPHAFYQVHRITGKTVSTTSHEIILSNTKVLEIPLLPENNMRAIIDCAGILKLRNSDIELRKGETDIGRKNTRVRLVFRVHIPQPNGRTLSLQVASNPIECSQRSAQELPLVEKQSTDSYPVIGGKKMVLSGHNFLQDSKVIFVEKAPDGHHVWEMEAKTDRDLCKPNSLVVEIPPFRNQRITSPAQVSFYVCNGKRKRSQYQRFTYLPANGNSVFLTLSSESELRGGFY
UniProt P47930: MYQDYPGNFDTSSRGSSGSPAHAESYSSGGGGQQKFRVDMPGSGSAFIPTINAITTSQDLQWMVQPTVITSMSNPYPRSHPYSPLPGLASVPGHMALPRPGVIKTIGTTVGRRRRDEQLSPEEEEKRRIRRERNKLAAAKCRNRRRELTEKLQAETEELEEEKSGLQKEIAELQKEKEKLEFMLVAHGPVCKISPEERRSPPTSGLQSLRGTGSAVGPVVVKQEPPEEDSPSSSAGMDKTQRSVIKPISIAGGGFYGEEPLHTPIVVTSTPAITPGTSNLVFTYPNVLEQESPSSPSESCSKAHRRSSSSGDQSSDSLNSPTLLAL
UniProt P05627, whole entry: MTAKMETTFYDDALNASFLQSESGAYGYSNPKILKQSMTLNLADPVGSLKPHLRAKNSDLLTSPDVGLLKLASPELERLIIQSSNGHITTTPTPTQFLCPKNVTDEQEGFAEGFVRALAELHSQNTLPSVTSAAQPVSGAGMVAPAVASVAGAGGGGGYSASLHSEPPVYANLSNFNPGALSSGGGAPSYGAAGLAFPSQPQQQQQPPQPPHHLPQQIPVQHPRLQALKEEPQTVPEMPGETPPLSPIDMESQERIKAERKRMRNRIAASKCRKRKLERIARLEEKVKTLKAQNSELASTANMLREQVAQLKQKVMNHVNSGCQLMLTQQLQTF
UniProt P13346: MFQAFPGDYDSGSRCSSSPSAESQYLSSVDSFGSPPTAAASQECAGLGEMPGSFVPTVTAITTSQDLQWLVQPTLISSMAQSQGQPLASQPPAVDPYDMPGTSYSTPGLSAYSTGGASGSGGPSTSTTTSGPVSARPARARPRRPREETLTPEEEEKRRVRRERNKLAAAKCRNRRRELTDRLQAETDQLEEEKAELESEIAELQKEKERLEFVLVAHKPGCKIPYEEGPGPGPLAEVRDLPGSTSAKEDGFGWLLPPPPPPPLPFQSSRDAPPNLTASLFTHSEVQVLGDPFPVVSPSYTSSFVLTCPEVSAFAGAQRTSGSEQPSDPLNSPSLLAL
UniProt P09450: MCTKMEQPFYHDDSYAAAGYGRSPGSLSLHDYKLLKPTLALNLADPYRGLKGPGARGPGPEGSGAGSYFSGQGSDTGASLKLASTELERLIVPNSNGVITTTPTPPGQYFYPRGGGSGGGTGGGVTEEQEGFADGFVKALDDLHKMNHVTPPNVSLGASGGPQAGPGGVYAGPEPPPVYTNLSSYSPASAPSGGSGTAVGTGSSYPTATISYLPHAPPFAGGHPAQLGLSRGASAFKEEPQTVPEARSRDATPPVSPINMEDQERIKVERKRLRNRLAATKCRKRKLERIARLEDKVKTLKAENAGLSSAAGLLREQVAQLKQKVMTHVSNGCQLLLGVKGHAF
UniProt P15066: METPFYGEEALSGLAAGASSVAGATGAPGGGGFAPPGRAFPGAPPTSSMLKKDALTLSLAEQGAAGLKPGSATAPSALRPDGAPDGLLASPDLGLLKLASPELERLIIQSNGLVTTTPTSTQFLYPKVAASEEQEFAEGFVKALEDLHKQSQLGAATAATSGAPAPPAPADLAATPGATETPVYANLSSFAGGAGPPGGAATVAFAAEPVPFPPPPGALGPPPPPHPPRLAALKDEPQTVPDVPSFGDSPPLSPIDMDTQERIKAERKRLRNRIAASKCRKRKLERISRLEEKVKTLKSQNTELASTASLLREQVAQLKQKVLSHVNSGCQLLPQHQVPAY
UniProt P01101, whole entry: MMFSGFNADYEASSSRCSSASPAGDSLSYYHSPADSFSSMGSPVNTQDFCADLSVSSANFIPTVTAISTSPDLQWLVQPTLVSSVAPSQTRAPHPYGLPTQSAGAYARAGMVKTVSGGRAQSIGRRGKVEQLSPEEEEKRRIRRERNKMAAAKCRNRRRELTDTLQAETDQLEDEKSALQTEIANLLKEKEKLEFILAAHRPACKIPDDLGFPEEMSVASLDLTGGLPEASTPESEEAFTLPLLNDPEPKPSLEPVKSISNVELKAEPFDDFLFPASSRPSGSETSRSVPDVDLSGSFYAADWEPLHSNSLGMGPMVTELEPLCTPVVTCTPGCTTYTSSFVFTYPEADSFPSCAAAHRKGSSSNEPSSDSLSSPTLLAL
UniProt Q04207, whole entry: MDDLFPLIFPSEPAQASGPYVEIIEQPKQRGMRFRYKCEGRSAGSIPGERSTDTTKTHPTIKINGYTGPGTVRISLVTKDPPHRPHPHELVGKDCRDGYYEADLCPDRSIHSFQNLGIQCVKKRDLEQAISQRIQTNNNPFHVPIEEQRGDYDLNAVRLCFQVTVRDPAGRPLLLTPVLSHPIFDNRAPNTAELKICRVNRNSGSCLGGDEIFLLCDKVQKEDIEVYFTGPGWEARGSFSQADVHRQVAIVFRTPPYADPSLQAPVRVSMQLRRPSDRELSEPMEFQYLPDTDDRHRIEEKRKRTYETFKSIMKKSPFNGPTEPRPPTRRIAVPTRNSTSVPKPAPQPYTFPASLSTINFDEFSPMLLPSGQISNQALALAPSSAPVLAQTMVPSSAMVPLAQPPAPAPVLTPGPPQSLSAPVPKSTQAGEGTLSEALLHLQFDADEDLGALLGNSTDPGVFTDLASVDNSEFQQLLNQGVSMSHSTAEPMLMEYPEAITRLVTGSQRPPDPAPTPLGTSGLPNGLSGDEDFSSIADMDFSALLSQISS
UniProt P15307, 2-587: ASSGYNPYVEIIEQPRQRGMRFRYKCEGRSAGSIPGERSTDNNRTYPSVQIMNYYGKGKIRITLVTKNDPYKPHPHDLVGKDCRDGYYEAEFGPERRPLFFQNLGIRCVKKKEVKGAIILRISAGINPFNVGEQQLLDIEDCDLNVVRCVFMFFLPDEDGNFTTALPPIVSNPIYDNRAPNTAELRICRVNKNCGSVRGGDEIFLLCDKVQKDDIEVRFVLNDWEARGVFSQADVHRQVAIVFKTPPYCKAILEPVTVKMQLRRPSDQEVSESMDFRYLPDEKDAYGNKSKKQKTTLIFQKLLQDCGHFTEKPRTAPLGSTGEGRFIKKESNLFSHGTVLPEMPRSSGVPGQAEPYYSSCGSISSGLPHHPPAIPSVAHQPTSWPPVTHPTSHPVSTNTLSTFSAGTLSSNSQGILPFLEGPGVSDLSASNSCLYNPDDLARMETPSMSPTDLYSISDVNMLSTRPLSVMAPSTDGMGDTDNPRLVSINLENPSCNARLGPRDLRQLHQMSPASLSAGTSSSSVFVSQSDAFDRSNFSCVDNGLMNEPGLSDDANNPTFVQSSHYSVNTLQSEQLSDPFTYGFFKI

[9] = molecular target: p65 (RelA) (Mus musculus (11A2 T cell line)) (UniProt Q04207); conditions: PMA+ionomycin 4 h, complex I, less in TNF-treated cell extract; 5 ug nuclear extract, 32P probe, 15 min at room temperature, 6% native PAGE; antibody 1 ug preincubated 10 min; protein in an extract; label: 32P end label
[10] = molecular target: c-Rel (Mus musculus (11A2 T cell line)) (UniProt P15307); conditions: PMA+ionomycin 4 h, complex I, less in TNF-treated cell extract; 5 ug nuclear extract, 32P probe, 15 min at room temperature, 6% native PAGE; antibody 1 ug preincubated 10 min; protein in an extract; label: 32P end label

Measured: binding result

CGCCCAAAGAGGAAAATTTGTTTCATA (double strand) [NFAT/AP-1 oligonucleotide]
binds: [1]

CGCTTGATGAGTCAGCCGGAA (double strand) [AP-1 oligonucleotide]
binds: [2] | [3] | [4] | [5] | [6] | [7]

AGTTGAGGGGACTTTCCCAGG (double strand) [NF-kB consensus oligonucleotide]
binds: [8] | [9] | [10]
